Test results as given in PubChem BioAssay AID662 (National Center for Advancing Translational Sciences (NCATS), 2007).
Some of the results follow. The main result of the screen is listed elsewhere. These columns were measured beside it and carry no call. The list favours compounds with an active or inconclusive main result. Potencies come from curve fits of mixed quality, noted in brackets.

experiment: Cell signaling CRE-BLA (Fsk stim); details: CHO CRE-bla reporter (cAMP response element driving beta-lactamase), forskolin EC10, beta-lactamase ratio; measured here: 460 nm blue channel
Method in brief: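 Using CellSensor CRE-bla CHO cells in Opti-MEM with 0.5% dialyzed FBS, compounds were titrated with EC10 NKH 477 for 3 h at 37 °C. CCF4 ratio (460/530 nm) gave %Activity; AC50 derived.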

| Compound | AC50 |
| --- | --- |
| NC(=O)CCn1nc(-c2ccc(Cl)cc2)c2ccccc2c1=O | 20 µM [rising, single point] |
| CCOc1cc(-c2noc(CCC(=O)Nc3cccnc3)n2)ccc1OC | 5.01 µM [falling, partial curve] |
| COc1ncc2nc(-c3ccc(F)cc3)c(=O)n(Cc3cccs3)c2n1 | 12.6 µM [rising, partial curve] |
| COc1cc(C2=NOC(C(=O)N3CCCc4ccccc43)C2)cc(OC)c1OC (configuration not stated) | 25.1 µM [rising, single point] |
| CC1=C(C(=O)OCc2ccccc2)C(c2ccc(C(F)(F)F)cc2)NC(=O)N1CCCCCC(=O)O (configuration not stated) | 12.6 µM [rising, partial curve] |
| CCC(=O)Nc1cc2c(cc1C(=O)CC)OCCO2 | 10 µM [rising, partial curve] |
| Cc1ccc(NC(=O)CN(C)S(=O)(=O)c2cccc3nsnc23)cc1C | 25.1 µM [falling, single point] |
| COC(=O)c1ccccc1OCC(=O)NC1CCCCC1 | 25.1 µM [rising, single point] |
| O=S(=O)(c1cccc2nsnc12)N1CCc2ccccc2C1 | 0.158 µM [falling, full curve, poor fit] |
| CCOc1ccc(Nc2cc(C)nc3nc(C)nn23)cc1 | 6.31 µM [rising, partial curve] |
| CCn1c2ccccc2c2nnc(SCc3cc(=O)n4ccsc4n3)nc21 | 2 µM [rising, full curve] |
| COc1ccc(-c2cc(C(=O)Nc3cccc(C(C)=O)c3)no2)cc1 | 0.00398 µM [falling, full curve, poor fit] |
| O=C(Nc1cccc2c1CCCC2)C1CCCN(S(=O)(=O)c2cccc3nonc23)C1 (configuration not stated) | 15.8 µM [falling, partial curve] |
| Cc1cc(Nc2ncc(Cl)cc2Cl)n[nH]1 | 0.00316 µM [falling, full curve, poor fit] |
| O=C1c2ccccc2-c2ncnc3cccc1c23 | 1.58 µM [rising, partial curve] |
| Cc1cc(C)n(CCc2nc(-c3cc4ccccc4o3)cs2)n1 | 5.01 µM [falling, single point] |
| CCC1(C)Cc2ccccc2-c2c1c(=O)n(Cc1ccccc1)c1nnnn21 (configuration not stated) | 3.16 µM [rising, single point] |
| Cc1cc(NC(=O)Cn2cnc3c2c(=O)n(C)c(=O)n3C)n(-c2ccccc2)n1 | 5.01 µM [falling, single point] |
| COc1ccccc1CNc1cc(-c2cccnc2)ncn1 | 10 µM [rising, partial curve] |
| CCNc1ncc2nc(-c3cc(F)cc(F)c3)c(=O)n(CCc3ccccc3)c2n1 | 1 µM [rising, full curve] |
| CCOC(=O)C(C)n1cnc2c(nnn2Cc2ccc(C)cc2)c1=O (configuration not stated) | 20 µM [rising, partial curve] |
| O=C(Nc1cc(Cl)ccc1O)c1cc2n(n1)C(C(F)(F)F)CC(c1ccc3c(c1)OCO3)N2 (configuration not stated) | 2 µM [falling, full curve, poor fit] |
| O=C(CSc1nnc(-c2ccccc2F)n1C1CCCCC1)N1CCCC1 | 0.02 µM [falling, partial curve, poor fit] |

| Compound | AC50 |
| --- | --- |
| CN(C(=O)CSc1nnc(NC2CCCCC2)s1)C1CCS(=O)(=O)C1 (configuration not stated) | 3.98 µM [falling, single point] |
| COc1ccc(-n2c(Cc3cccn3C)nnc2SCC(=O)Nc2ccc(Cl)cc2)cc1 | 12.6 µM [falling, partial curve] |
| Cc1ccc(N2C(=O)c3ccc(N)cc3C2=O)cc1C | 7.94 µM [rising, partial curve] |
| c1ccc(-c2nn3nnnc3c3ccccc23)cc1 | 25.1 µM [rising, single point] |
| Cc1nnc(SCc2nnc(-c3ccccc3Br)o2)n1-c1ccccc1 | 10 µM [rising, single point] |
| CCOC(=O)Cn1c(=O)oc2cc(S(=O)(=O)Nc3ccc(N(CC)CC)cc3C)ccc21 | 20 µM [falling, single point] |
| COc1ccccc1CN1CC[C@@]2(CCCN(C(C)=O)C2)C1 | 5.01 µM [falling, single point] |
| Cc1cc(C(=O)OCC(=O)N2CCN(c3ccccc3)CC2)c2ccccc2n1 | 25.1 µM [rising, single point] |
| CCOc1cccc(C(=O)Nc2cccc(-c3nnc(-c4ccccc4)o3)c2)c1 | 0.316 µM [falling, single point] |
| Clc1ccccc1-c1nc(NCc2cccnc2)c2ccccc2n1 | 6.31 µM [rising, full curve] |
| CCOC(=O)N1CCN(C(=O)C2CCN(S(=O)(=O)N3CCCC3)CC2)CC1 | 0.126 µM [rising, full curve, poor fit] |
| CC(OC(=O)C(NC(=O)c1ccco1)C(C)C)C(=O)Nc1ncc(Cl)cc1Cl (configuration not stated) | 1 µM [falling, full curve, poor fit] |
| Cc1oc(-c2nc3ccccc3n2C)cc1C(=O)c1ccccc1 | 7.94 µM [rising, partial curve] |
| CN1CCN(c2ncnc3ccc(-c4ccccc4Cl)cc23)CC1 | 7.94 µM [rising, partial curve] |
| CN(CC(=O)NC1CCCCC1)S(=O)(=O)c1ccc(Br)s1 | 0.00794 µM [falling, full curve, poor fit] |
| CC(C)OCCCNC(=O)CNC(=O)c1cccs1 | 0.631 µM [falling, partial curve] |
| Cc1ccc(SCc2cc(=O)[nH]c(N3CCCCC3)n2)cc1 | 10 µM [falling, partial curve] |
| CCNc1ncc2nc(-c3cn(C)c4ccccc34)c(=O)n(-c3ccc(OC)cc3)c2n1 | 10 µM [rising, partial curve] |
| O=C1[C@@H]2[C@H](Cc3ccc(O)cc3)N[C@]3(C(=O)Nc4ccccc43)[C@@H]2C(=O)N1c1ccc(F)cc1 | 20 µM [falling, partial curve, poor fit] |
| C=CCn1c(N)c(C(=O)Nc2ccccc2OC)sc1=S | 0.316 µM [rising, partial curve] |
| Cc1cc(C(=O)OCCO)c(C#N)c(N)n1 | 10 µM [rising, single point] |
| O=C(C1CCN(S(=O)(=O)c2cccnc2)CC1)N1CCN(C2CCCC2)CC1 | 0.00316 µM [falling, full curve] |
| O=C1CCCC2=C1C1(CCCC1)N=C(Nc1nc3ccccc3o1)N2 | 1 µM [rising, partial curve] |

| Compound | AC50 |
| --- | --- |
| COc1ccc(CCNC(=O)C2CC2)cc1OC | 0.00316 µM [falling, full curve, poor fit] |
| CCOc1ccc(-c2cc(CCCC(=O)Nc3cccc(OC)c3)no2)cc1 | 5.01 µM [rising, full curve] |
| Cc1ccccc1-n1nc(C)c2cc(C(=O)NCc3cccnc3)sc21 | 25.1 µM [rising, single point] |
| c1cncc(-c2nc(-n3ccnc3)c3ccccc3n2)c1 | 7.94 µM [rising, partial curve] |
| N=c1c(C(=O)NCC2CCCO2)cc2c(=O)n3ccccc3nc2n1Cc1cccnc1 (configuration not stated) | 12.6 µM [rising, partial curve] |
| Cc1nn(C)cc1CN(C)C(=O)c1nn2c(c1Cl)NC(c1cccs1)CC2C(F)(F)F (configuration not stated) | 25.1 µM [rising, single point] |
| CCn1c(=O)c(C(C)=O)nc2ccccc21 | 12.6 µM [rising, partial curve] |
| OC1(c2cccc(C(F)(F)F)c2)CCNCC1 | 31.6 µM [falling, partial curve] |
| CC(=O)OCC(=O)NCc1ccc2c(c1)OCO2 | 5.01 µM [falling, single point] |
| CCN1C(=S)SC(=O)C1=C1C=C(C)OC(C)=C1 | 5.01 µM [falling, partial curve] |
| Cc1nc(N2C(=O)C(=O)/C(=C(/O)c3ccccc3)C2c2ccco2)sc1C (configuration not stated) | 12.6 µM [rising, single point] |
| CCOC(=O)Cc1nnc(NC(=O)CSc2nnc3c4ccccc4n(C)c3n2)s1 | 3.16 µM [rising, partial curve] |
| Cn1nc(-c2ccc(Cl)cc2)c2cc(C(=O)NCC3CCCO3)sc21 (configuration not stated) | 5.01 µM [rising, partial curve] |
| Cc1ccc(N=C2SCCCN2C(=O)c2ccco2)cc1Cl | 3.16 µM [falling, full curve] |
| c1nc(N2CCNCC2)c2cc(-c3ccc4c(c3)OCO4)ccc2n1 | 15.8 µM [rising, partial curve] |
| CCCCC[C@H](O)/C=C\[C@H]1[C@H](C/C=C\CCCC(=O)O)[C@@H](O)C[C@H]1O (tested in a mixture with another compound) | 2.51 µM [rising, full curve] |
| COC(=O)c1c(C)nc(C)c2c(=O)oc3ccccc3c12 | 10 µM [rising, partial curve] |
| Cc1cccc(-n2c(N)cc(=O)nc2SCC(=O)Nc2ccccc2)c1 | 25.1 µM [rising, single point] |
| O=c1c2c(nc3nc(COc4ccccc4)[nH]n13)CCC2 | 15.8 µM [rising, single point] |
| Cc1nn(Cc2ccccc2Cl)c(C)c1NC(=O)C1C2CCC(O2)C1C(=O)O (configuration not stated) | 10 µM [rising, partial curve, poor fit] |
| O=C1CN(C(=O)CC2c3ccccc3-c3ccccc32)CC(=O)N1 | 31.6 µM [falling, partial curve] |

Reformatted as comma-separated lines: entries from further up
Compound,AC50
N=c1c(C(=O)NCC2CCCO2)cc2c(=O)n3ccccc3nc2n1Cc1cccnc1 (configuration not stated),"12.6 µM [rising, partial curve]"
CCOC(=O)Cc1nnc(NC(=O)CSc2nnc3c4ccccc4n(C)c3n2)s1,"3.16 µM [rising, partial curve]"
COC(=O)c1c(C)nc(C)c2c(=O)oc3ccccc3c12,"10 µM [rising, partial curve]"
